No constants are given. Whether binding was seen depends on the method and setting. Binding seen in cells or lysates may run through a third protein. Some binding calls cover weakened binding; strength is not graded here.

Chains of the proteins cited; added tags and fusions are not shown.
UniProt Q8BTW9: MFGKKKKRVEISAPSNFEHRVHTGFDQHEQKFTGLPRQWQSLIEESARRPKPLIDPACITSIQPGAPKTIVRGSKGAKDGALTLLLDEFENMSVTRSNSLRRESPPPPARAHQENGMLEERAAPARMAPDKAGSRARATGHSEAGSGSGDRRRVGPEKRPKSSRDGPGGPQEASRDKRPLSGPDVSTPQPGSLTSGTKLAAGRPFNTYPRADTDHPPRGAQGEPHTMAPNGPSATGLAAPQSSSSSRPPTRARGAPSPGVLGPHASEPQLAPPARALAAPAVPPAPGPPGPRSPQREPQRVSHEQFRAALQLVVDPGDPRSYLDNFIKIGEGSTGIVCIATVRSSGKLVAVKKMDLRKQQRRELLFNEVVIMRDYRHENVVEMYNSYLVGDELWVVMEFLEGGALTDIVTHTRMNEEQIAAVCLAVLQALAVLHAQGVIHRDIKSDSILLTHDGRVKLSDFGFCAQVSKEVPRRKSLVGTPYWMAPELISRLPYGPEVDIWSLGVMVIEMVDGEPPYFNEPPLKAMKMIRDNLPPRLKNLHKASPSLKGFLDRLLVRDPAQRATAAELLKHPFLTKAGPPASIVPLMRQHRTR
UniProt P11404: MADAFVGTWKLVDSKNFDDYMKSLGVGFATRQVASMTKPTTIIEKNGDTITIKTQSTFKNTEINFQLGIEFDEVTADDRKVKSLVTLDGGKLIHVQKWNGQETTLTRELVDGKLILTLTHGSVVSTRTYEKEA

The target in assay [1] is p21-activated kinase 4 (Pak4) (mouse (endogenous in TSPCs and tendon tissue of C57BL/6 mice)) (UniProt Q8BTW9). The experiment in a line: co-IP; in vivo study, burn/tenotomy mice and sham group (Fig. S8D).
For assay [2] the target is unchanged. Kind of assay: co-IP; lysates of osteogenic induced TSPCs with PBS or NecroMφ-EVs; magnetic beads with anti-Pak4 and Fabp3 antibodies or normal rabbit IgG, overnight at 4 °C; blot.

Regarding “fatty acid binding protein 3 (Fabp3) (from UniProt P11404 1-133)”, the binding entry in assay [1] and in assay [2] was “binds” each time.

(Values after paper PMC12536042.)
